# The other results are listed elsewhere or left out.
# B1: TIM-1 (Mus musculus), AAL35774 (protein)
# chain: MNQIQVFISGLILLLPGAVDSYVEVKGVVGHPVTLPCTYSTYRGITTTCWGRGQCPSSACQNTLIWTNGHRVTYQKSSRYNLKGHISEGDVSLTIENSVESDSGLYCCRVEIPGWFNDQKVTFSLQVKPEIPTRPPTRPTTTRPTATGRPTTISTRSTHVPTSIRVSTSTPPTSTHTWTHKPEPTTFCPHETTAEVTGIPSHTPTDWNGTVTSSGDTWSNHTEAIPPGKPQKNPTKGFYVGICIAALLLLLLVSTVAITRYILMKRKSASLSVVAFRVSKIEALQNAAVVHSRAEDNIYIVEDRP
# Experiments:
# Assay in all cases: glycan array binding signal (z-score within array); higher = stronger binding
# Conditions in all cases: glycan notation: IUPAC condensed, linker removed
# [1] = target: GlcNAc(b1-4)GlcNAc(b1-4)GlcNAc(b1-4)GlcNAc(b1-4)GlcNAc
# Method in brief: (§1)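 The binding signal is a Z-score computed within each array. Data were drawn from 3228 arrays in the Consortium for Functional Glycomics database, restricted to those with a known protein sequence. Scores were averaged over arrays of the same protein sequence at different concentrations or buffers, and over linkers, and negative values can be taken as non-binding.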
# [2] = target: GlcNAc(b1-4)GlcNAc(b1-4)GlcNAc(b1-4)GlcNAc(b1-4)GlcNAc(b1-4)GlcNAc
# Method in brief: as §1
# [3] = target: GlcNAc(b1-4)[GlcNAc(b1-6)]GalNAc
# Method in brief: as §1
# [4] = target: GlcNAc(b1-6)Gal(b1-4)GlcNAc
# Method in brief: as §1
# GlcNAc(b1-6)GalNAc = target: GlcNAc(b1-6)GalNAc
# Method in brief: as §1
# Kdn(a2-3)Gal(b1-3)GlcNAc = target: Kdn(a2-3)Gal(b1-3)GlcNAc
# Method in brief: as §1
# Kdn(a2-3)Gal(b1-4)GlcNAc = target: Kdn(a2-3)Gal(b1-4)GlcNAc
# Method in brief: as §1
# [5] = target: Man(a1-2)Man(a1-2)Man(a1-3)Man
# Method in brief: as §1
# [6] = target: Man(a1-2)Man(a1-2)Man(a1-3)[Man(a1-2)Man(a1-3)[Man(a1-2)Man(a1-6)]Man(a1-6)]Man(b1-4)GlcNAc(b1-4)GlcNAc
# Method in brief: as §1
# [7] = target: Man(a1-2)Man(a1-2)Man(a1-3)[Man(a1-2)Man(a1-6)[Man(a1-3)]Man(a1-6)]Man(b1-4)GlcNAc(b1-4)GlcNAc
# Method in brief: as §1
# [8] = target: Man(a1-2)Man(a1-2)Man(a1-6)[Man(a1-3)]Man
# Method in brief: as §1
# Man(a1-2)Man(a1-3)Man = target: Man(a1-2)Man(a1-3)Man
# Method in brief: as §1
# [9] = target: Man(a1-2)Man(a1-3)[Man(a1-2)Man(a1-6)]Man
# Method in brief: as §1
# [10] = target: Man(a1-2)Man(a1-3)[Man(a1-2)Man(a1-6)]Man(a1-6)[Man(a1-2)Man(a1-2)Man(a1-3)]Man(b1-4)GlcNAc(b1-4)GlcNAc
# Method in brief: as §1
# [11] = target: Man(a1-2)Man(a1-3)[Man(a1-2)Man(a1-6)]Man(a1-6)[Man(a1-3)[Man(a1-6)]Man(a1-6)]Man(b1-4)GlcNAc(b1-4)GlcNAc
# Method in brief: as §1
# [12] = target: Man(a1-2)Man(a1-3)[Man(a1-3)[Man(a1-6)]Man(a1-6)]Man(b1-4)GlcNAc(b1-4)GlcNAc
# Method in brief: as §1
# [13] = target: Man(a1-2)Man(a1-3)[Man(a1-6)]Man(a1-6)[Man(a1-2)Man(a1-3)]Man(b1-4)GlcNAc(b1-4)GlcNAc
# Method in brief: as §1
# [14] = target: Man(a1-2)Man(a1-6)[Man(a1-3)]Man(a1-6)[Man(a1-2)Man(a1-2)Man(a1-3)]Man(b1-4)GlcNAc(b1-4)GlcNAc
# Method in brief: as §1
# Man(a1-3)[Man(a1-6)]Man = target: Man(a1-3)[Man(a1-6)]Man
# Method in brief: as §1
# [15] = target: Man(a1-3)[Man(a1-6)]Man(a1-6)[Man(a1-3)]Man(b1-4)GlcNAc(b1-4)GlcNAc
# Method in brief: as §1
# [16] = target: Man(a1-3)[Man(a1-6)]Man(b1-4)GlcNAc(b1-4)GlcNAc
# Method in brief: as §1
# Man(b1-4)GlcNAc = target: Man(b1-4)GlcNAc
# Method in brief: as §1
# Neu5Ac(a2-3)Gal = target: Neu5Ac(a2-3)Gal
# Method in brief: as §1
# [17] = target: Neu5Ac(a2-3)Gal(b1-3)GalNAc
# Method in brief: as §1
# [18] = target: Neu5Ac(a2-3)Gal(b1-3)GalNAc(b1-3)Gal(a1-4)Gal(b1-4)Glc
# Method in brief: as §1
# [19] = target: Neu5Ac(a2-3)Gal(b1-3)GalNAc(b1-4)[Neu5Ac(a2-3)]Gal(b1-4)Glc
# Method in brief: as §1
# [20] = target: Neu5Ac(a2-3)Gal(b1-3)GalNAc6S
# Method in brief: as §1
# [21] = target: Neu5Ac(a2-3)Gal(b1-3)GlcNAc
# Method in brief: as §1
# [22] = target: Neu5Ac(a2-3)Gal(b1-3)GlcNAc(b1-3)Gal(b1-3)GlcNAc
# Method in brief: as §1
# [23] = target: Neu5Ac(a2-3)Gal(b1-3)GlcNAc(b1-3)Gal(b1-4)GlcNAc
# Method in brief: as §1
# [24] = target: Neu5Ac(a2-3)Gal(b1-3)GlcNAc6S
# Method in brief: as §1
# [25] = target: Neu5Ac(a2-3)Gal(b1-3)[Fuc(a1-4)]GlcNAc
# Method in brief: as §1
# [26] = target: Neu5Ac(a2-3)Gal(b1-3)[Fuc(a1-4)]GlcNAc(b1-3)Gal(b1-4)[Fuc(a1-3)]GlcNAc
# Method in brief: as §1
# [27] = target: Neu5Ac(a2-3)Gal(b1-3)[Neu5Ac(a2-3)Gal(b1-4)]GlcNAc
# Method in brief: as §1
# [28] = target: Neu5Ac(a2-3)Gal(b1-3)[Neu5Ac(a2-6)]GalNAc
# Method in brief: as §1
# Neu5Ac(a2-3)Gal(b1-4)Glc = target: Neu5Ac(a2-3)Gal(b1-4)Glc
# Method in brief: as §1
# [29] = target: Neu5Ac(a2-3)Gal(b1-4)GlcNAc
# Method in brief: as §1
# [30] = target: Neu5Ac(a2-3)Gal(b1-4)GlcNAc(b1-3)Gal(b1-3)GlcNAc
# Method in brief: as §1
# [31] = target: Neu5Ac(a2-3)Gal(b1-4)GlcNAc(b1-3)Gal(b1-4)GlcNAc
# Method in brief: as §1
# [32] = target: Neu5Ac(a2-3)Gal(b1-4)GlcNAc(b1-3)Gal(b1-4)GlcNAc(b1-3)Gal(b1-4)GlcNAc
# Method in brief: as §1
# [33] = target: Neu5Ac(a2-3)Gal(b1-4)GlcNAc(b1-3)Gal(b1-4)[Fuc(a1-3)]GlcNAc
# Method in brief: as §1
binder,measurement,setting,value
B1,glycan array binding signal (z-score),[1],1.29
same,glycan array binding signal (z-score),[2],-0.27
same,glycan array binding signal (z-score),[3],-0.404
same,glycan array binding signal (z-score),[4],-0.402
same,glycan array binding signal (z-score),GlcNAc(b1-6)GalNAc,-0.307
same,glycan array binding signal (z-score),Kdn(a2-3)Gal(b1-3)GlcNAc,-0.558
same,glycan array binding signal (z-score),Kdn(a2-3)Gal(b1-4)GlcNAc,1.26
same,glycan array binding signal (z-score),[5],0.548
same,glycan array binding signal (z-score),[6],1.22
same,glycan array binding signal (z-score),[7],0.011
same,glycan array binding signal (z-score),[8],-0.193
same,glycan array binding signal (z-score),Man(a1-2)Man(a1-3)Man,-0.049
same,glycan array binding signal (z-score),[9],-0.02
same,glycan array binding signal (z-score),[10],-0.086
same,glycan array binding signal (z-score),[11],-0.455
same,glycan array binding signal (z-score),[12],0.119
same,glycan array binding signal (z-score),[13],0.298
same,glycan array binding signal (z-score),[14],-0.215
same,glycan array binding signal (z-score),Man(a1-3)[Man(a1-6)]Man,0.221
same,glycan array binding signal (z-score),[15],0.141
same,glycan array binding signal (z-score),[16],0.07
same,glycan array binding signal (z-score),Man(b1-4)GlcNAc,0.312
same,glycan array binding signal (z-score),Neu5Ac(a2-3)Gal,-0.453
same,glycan array binding signal (z-score),[17],-0.392
same,glycan array binding signal (z-score),[18],-0.803
same,glycan array binding signal (z-score),[19],-0.718
same,glycan array binding signal (z-score),[20],0.148
same,glycan array binding signal (z-score),[21],-0.118
same,glycan array binding signal (z-score),[22],0.04
same,glycan array binding signal (z-score),[23],-0.296
same,glycan array binding signal (z-score),[24],-0.232
same,glycan array binding signal (z-score),[25],0.05
same,glycan array binding signal (z-score),[26],-0.377
same,glycan array binding signal (z-score),[27],-0.044
same,glycan array binding signal (z-score),[28],-0.241
same,glycan array binding signal (z-score),Neu5Ac(a2-3)Gal(b1-4)Glc,-0.275
same,glycan array binding signal (z-score),[29],-0.181
same,glycan array binding signal (z-score),[30],-0.782
same,glycan array binding signal (z-score),[31],-0.261
same,glycan array binding signal (z-score),[32],-0.569
same,glycan array binding signal (z-score),[33],-0.422

# Laid out differently: entries from further up.
binder | measurement | setting | value
B1 | glycan array binding signal (z-score) | [31] | -0.261
same | glycan array binding signal (z-score) | [32] | -0.569
